## Screening data, single-dose tests

The values are deposited in ChEMBL (CHEMBL3988442, “University of Dundee, Small-Polar-MMV Screening Library” (2021)).

The filed quantity is “Percent Effect” (%). How 0% and 100% were set is not recorded. Most values in the screen are low, and negative values occur. This is an unselected part of the compounds tested.

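Whole-parasite assay of Trypanosoma brucei over 72 hours; the read-out is not stated. Compounds at 30 µM. The record gives no direction; compounds that gave an IC50 in retests scored well above the rest, so higher reads as stronger inhibition. Values scatter widely below zero; nearly all retest evidence comes from the higher of the two concentrations used. Of about 64,000 compounds tested this way, about 940 (1.5%) reached 50% or more in at least one test.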

structure,Percent Effect
CN(C)CC1CSCCCN1C(=O)c1ccc(=O)[nH]c1 (centres unmarked),-14.34
N#Cc1cccc(N2CCCC3(CNCCO3)C2)n1.O=C(O)C(F)(F)F.O=C(O)C(F)(F)F (centres unmarked),-50.25
OCCN1CCN(CC(O)c2ccc(OC(F)(F)F)cc2)CC1 (centres unmarked),-3.512
Cc1ccccc1CN(C)Cc1nc2c(cnn2C)c(=O)[nH]1,-6.358
CC(C)(C)NC(=O)CN1CCN(C(=O)Nc2ccc(F)cc2F)CC1,-31.69
NS(=O)(=O)CCCNC(=O)c1cnc(-c2ccsc2)s1,13.32
COc1cc2c(c(OC)c1OC)CCN(CCn1cncn1)CC2,-35.91
CCCc1n[nH]c(C2CN(C(=O)CCCn3cccn3)CCO2)n1 (centres unmarked),45.23
N#Cc1ccc(OC2CCN(C(=O)c3cncc(Br)c3)CC2)nc1,-3.196
CCOCC1CCCN(C(=O)NCc2cn3c(C)cccc3n2)C1 (centres unmarked),-24.04
CNS(=O)(=O)CC(=O)NC(C)Cc1cccc(Cl)c1 (centres unmarked),-13.21
O=C(COc1ccc(Cl)cc1)N1CCOCC1c1ncon1 (centres unmarked),-26.97
CCc1nc(CN2CCCC(N(C)Cc3cnc(C)cn3)C2)no1 (centres unmarked),-33.93
COC1(CNC(=O)c2ccc3nsnc3c2)CCSC1 (centres unmarked),-21.14
O=C(O)CNc1cc(-c2cc(C(=O)NC3CC3)ccn2)c2cc[nH]c2n1,-2.648
Cc1noc(C)c1CN1CCC2(CC1)NC(=O)CC2c1ccccc1.O=C(O)C(F)(F)F (centres unmarked),-73.23
CC(Cn1cccn1)NCCCc1nc(-c2cccs2)no1 (centres unmarked),-14.14
Cc1cc2nc(C(=O)NCc3cccnc3N(C)C)cc(C)n2n1,-15.39
O=C(c1cc(F)ccc1O)N1CCN(C2CCSC2)CC1 (centres unmarked),7.73
CN(Cc1cccc(OC(F)(F)F)c1)Cc1cnn(C)c1,-35.61
CC(C)CNC(=O)c1nc(COc2ccc3c(c2)OCO3)no1,-6.712
O=C(O)C(F)(F)F.O=C(O)C(F)(F)F.[H][C@@]12CN(C(=O)c3cccc(C)n3)C[C@]1([H])[C@@H]2CC(=O)Nc1cccnc1,-21.53
CCN(CC)C(=O)CCNC(=O)N(C)Cc1ccc(SC)c(OC)c1,5.276
CCC1(CC)Cc2ccccc2-c2nc(CN(C)C)nc(O)c21,0.8449
Cc1noc(C2CCC3(CCN(C(=O)c4ccncn4)CC3)O2)n1 (centres unmarked),-34.45
Cc1noc([C@@H](C)NCc2ccc(F)cc2)c1C(=O)O.Cl,0.01469
NC(=O)c1noc(Cn2ncc3ccccc3c2=O)n1,-58.46
Cl.[H][C@@]12CNC[C@]1([H])CN(C(=O)C1CCCCC1)C2,-7.709
O=C(NCc1cccnc1N1CCc2ccccc2C1)c1cnc[nH]1,1.013
CCn1nc(C)cc1C(=O)NCc1cc(N(C)C)nc2ccccc12,-6.188
CCc1ncc(C(=O)N2C[C@@H](C)O[C@@H](C)C2)cn1,9.865
COc1cc(-c2nc(N)n[nH]2)cc(OC)c1OC,-20.93
O=C(Cc1cccs1)NCCNc1nccc(C(F)(F)F)n1,-16.41
CCC(=O)NCc1ccccc1Cn1ccnc1,-33.46
CCc1cc(CNC(=O)N(C2CC2)C(C)c2ccco2)[nH]n1 (centres unmarked),-8.58
Cc1cc(C(=O)N(C)CCCn2cccn2)nc(N)n1,-22.35
CCN(CC(=O)NC(C)(C)C)Cc1cccc2c1OCCO2,-6.847
COCCn1ccnc1CN(Cc1ccccn1)CC(C)C,10.54
CN(C)c1nc2c(c(N3CCC(O)CC3)n1)CN(CC(C)(C)C)CC2,-17.36
CCNC(=O)c1ccc(NC2CCOC3(CCCC3)C2)nn1 (centres unmarked),-89.74
Cc1noc(CNC(=O)NCCOc2ccc(Cl)cc2)n1,-8.016
CCC(C(=O)N(Cc1ccccn1)C1CCCCC1)n1cccn1 (centres unmarked),-99.07
Cn1cc(CN2CCCN(C(=O)c3ccc4ccccc4n3)CC2)cn1,2.203
CSc1ccc(-c2nc(CN3CCNCC3C)c(C)o2)cc1 (centres unmarked),65.66
CS(=O)(=O)Nc1ccn(Cc2cccc(F)c2)n1,-22.14
c1cncc(-n2cnnc2CC2CCNCC2)c1,-17.21
Cc1nnsc1C(=O)NCCn1ccc(-c2ccncc2)n1,-8.281
Cc1nn(C)cc1CC(C#N)C(=O)Nc1cccc(O)c1 (centres unmarked),4.342
O=C(O)C(F)(F)F.[H][C@@]12CCN(C(=O)COCC)C[C@]1(COc1ncccc1F)CCO2,-134
c1cnc2ccc(C[C@@H]3CC[C@H](CN4CCCOCC4)O3)cc2c1,-31.52
CCO[C@H]1CO[C@@]2(CCCN(C(=O)c3ccc(OC)c(F)c3)C2)C1,-57.68
COC(=O)c1ccc(C(=O)NCc2ccc(Br)cc2)cn1,8.415
COc1ccc(C2=CCN(C(=O)C3CCC3)CC2)cc1,-20.1
CCCN1CC2(CCN(c3ccc(C(C)=O)cn3)CC2)CC1C(=O)O (centres unmarked),-8.082
Cc1n[nH]c(C)c1CCCN(C)c1cc(N(C)C)ncn1,-35.14
CNS(=O)(=O)c1cccc(CNC(=O)c2c(C)nn(C)c2C)c1,-23.65
Cc1ccc(CN2CCOC3(COCCN(S(C)(=O)=O)C3)C2)s1.O=C(O)C(F)(F)F (centres unmarked),8.415
CC1(C)Cc2nc(C(C)(C)C)ncc2C(NC(=O)C2(N)CC2)C1 (centres unmarked),-10.14
Cn1cc(CN2CCCC3(COCCN(c4cccnc4)C3)C2)cn1.O=C(O)C(F)(F)F.O=C(O)C(F)(F)F (centres unmarked),-613.4
CC(C)=CCCC(C)CN1CCC(n2cc(CO)nn2)CC1 (centres unmarked),-16.12
Cc1cc(C)n2c(CCCNS(=O)(=O)c3ccc(F)cc3)nnc2n1,-48.84
FC(F)(F)c1cccc(N2CCC(NCc3cccnc3)CC2)c1,-14.9
Cc1cnn(CCNCC(O)c2ccc(C(F)(F)F)cc2)c1 (centres unmarked),-7.541
COC1CN(C(=O)C2CC2)CCC(=O)N(C)c2ccccc21 (centres unmarked),-30.32
CC(c1ccc(F)cc1F)N1CCN(CCC(=O)O)CC1.Cl (centres unmarked),-51.09
Cn1ncc2c1CCCN(C(=O)C1CC1)C2,-11.64
CCOc1cc(C)ccc1NC(=O)N(C)Cc1cnn(C)c1,35.16
CC(C)c1cc(C2CCN(C(=O)Cn3cncn3)CC2)[nH]n1,-47.26